Data from the supplement of paper PMC12823440, “Inhibitors supercharge kinase turnover through native proteolytic circuits” (Nature, 2025).
Structures can show the parent of a compound that is named as a salt. This is one part of the list. The calls rarely recur for the same compound in another form.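 Kinases, fused to nanoluciferase, were expressed in K562 cells; luminescence was measured every 4 h from 2 to 18 h as percent of control (DMSO = 100%, positive control = 0%). A time point is decreased if signal falls significantly (2 sigma). Hits were called by the authors by a rule that is not shown; the count of time points alone does not decide it.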

Protein sequences, listed by entry. Tags and fused reporters are not part of them.
UniProt P50750, whole entry: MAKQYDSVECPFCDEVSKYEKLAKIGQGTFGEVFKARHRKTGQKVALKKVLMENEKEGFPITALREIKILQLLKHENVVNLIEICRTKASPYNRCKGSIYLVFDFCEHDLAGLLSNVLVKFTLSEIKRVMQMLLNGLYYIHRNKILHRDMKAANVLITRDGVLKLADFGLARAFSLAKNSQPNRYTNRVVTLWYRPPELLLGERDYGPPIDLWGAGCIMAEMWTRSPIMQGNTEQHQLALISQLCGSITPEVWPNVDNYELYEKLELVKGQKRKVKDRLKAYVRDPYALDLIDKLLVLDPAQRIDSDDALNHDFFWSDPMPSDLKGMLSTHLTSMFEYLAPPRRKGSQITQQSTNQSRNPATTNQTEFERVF

Each compound was assayed against CDK9 (UniProt P50750) (assay: number of time points (of 4; 2 h point missing) at which kinase-Nluc abundance scored as decreased, DMSO-normalised (count); higher = more persistent destabilization). Settings: 2.5 µM; K562; 2-18 h.

| SMILES | number of time points |
| --- | --- |
| C=CC(=O)Nc1cc2c(Nc3ccc(F)c(Cl)c3)ncnc2cc1OCCCN1CCOCC1 [Canertinib (dihydrochloride)] | 0 |
| Cc1cc(C)n2c1C=C1C=CC(CCC(=O)NCCN3CCN(C/C=C/C(=O)N4CCCC(n5nc(-c6ccc(Oc7ccccc7)cc6)c6c(N)ncnc65)C4)CC3)=[N+]1[B-]2(F)F (centres undefined) | 0 |
| O=C1NCCc2[nH]c(-c3ccncc3)cc21 | 0 |
| CC(=O)c1c(C)c2cnc(Nc3ccc(N4CCN(C(=O)CCCCCC(=O)N[C@H](C(=O)N5C[C@H](O)C[C@H]5C(=O)NCc5ccc(-c6scnc6C)cc5)C(C)(C)C)CC4)cn3)nc2n(C2CCCC2)c1=O | 0 |
| O=C(Nc1cccc(Nc2nccc(Nc3cccc(C(F)(F)F)c3)n2)c1)C1CC1 [Aurora kinase inhibitor-3] | 0 |
| CNC(=O)c1cc(Oc2ccc(NC(=O)Nc3ccc(Cl)c(C(F)(F)F)c3)cc2)ccn1 [Sorafenib] | 0 |
| Cc1cc(Nc2cc(N3CCN(C)CC3)nc(/C=C/c3ccccc3)n2)n[nH]1 [ENMD-2076 (Tartrate)] | 0 |
| CCc1cc2c(cc1-c1cnn(CC(=O)N(C)C)c1)C(C)(C)c1[nH]c3cc(C#N)ccc3c1C2=O | 0 |
| COc1cc(Nc2c(C#N)cnc3cc(OCCCN4CCN(C)CC4)c(OC)cc23)c(Cl)cc1Cl [Bosutinib] | 0 |
| NC(=O)c1c(OCc2c(F)cc(Br)cc2F)nsc1NC(=O)NCCCCN1CCCC1 | 0 |
| Nc1ncnc2c1c(-c1cnc3[nH]ccc3c1)nn2C1CCCC1 | 4 |
| CN1CCN(c2ccc3nc(-c4c(N)c5c(F)cccc5[nH]c4=O)[nH]c3c2)CC1 [Dovitinib] | 0 |
| COc1cc(N2CCC(N3CCN(C)CC3)CC2)ccc1Nc1ncc(Cl)c(Nc2ccccc2S(=O)(=O)C(C)C)n1 | 0 |
| O=C(c1ccc(/C=C/c2n[nH]c3ccccc23)cc1)N1CCNCC1 | 0 |
| COc1ccc(CNC(=O)Nc2ncc([N+](=O)[O-])s2)cc1 | 0 |
| Nc1nc(Nc2ccc(S(N)(=O)=O)cc2)nn1C(=O)c1c(F)cccc1F | 0 |

Same assay, conditions: 10 µM; K562; 2-18 h

| SMILES | number of time points |
| --- | --- |
| Fc1ccc(-c2nc(-c3ccc4ccccc4c3F)[nH]c2-c2ccncc2)cc1 | 3 |
| O=c1ncn2nc(Sc3ccc(F)cc3F)ccc2c1-c1c(Cl)cccc1Cl [Neflamapimod] | 0 |
| Cc1ccc(O)cc1Nc1ccnc(Nc2cccc(C(N)=O)c2)n1 [Lck inhibitor 2] | 0 |
| C[C@@H]1O[C@@H](Oc2c(-c3ccc(O)c(O)c3)oc3cc(O)cc(O)c3c2=O)[C@H](O)[C@H](O)[C@H]1O [Quercitrin] | 0 |
| Cc1ccc2c(=O)c3cccc(CC(=O)O)c3oc2c1C [Vadimezan] | 0 |
| O=S(=O)(c1cccc2c(O)nccc12)N1CCCNCC1 [Hydroxyfasudil (hydrochloride)] | 0 |
| Cc1cc2c(F)c(Oc3ncnn4cc(OC[C@@H](C)O)c(C)c34)ccc2[nH]1 [Brivanib] | 0 |
| CC(C)[C@@](C)(O)[C@@H]1CN(c2nc(-c3[nH]nc4ncccc34)c(F)cc2Cl)CCN1 | 0 |
| COc1cc2ncnc(Nc3cccc(Br)c3)c2cc1OC | 0 |
| CCn1c(=O)c(-c2cc(NC(=O)Nc3ccccc3)c(F)cc2Br)cc2cnc(NC)cc21 [Ripretinib] | 1 |
| C=CC(=O)N1C[C@@H](Nc2ncnc3[nH]ccc23)CC[C@H]1C [(2R,5S)-Ritlecitinib] | 0 |
| Cc1cc2ncnn2cc1Nc1ncc2c(n1)n(C1CCOCC1)c(=O)n2C | 0 |
| Cc1ccc(Nc2nccc(N(C)c3ccc4c(C)n(C)nc4c3)n2)cc1S(N)(=O)=O [Pazopanib (Hydrochloride)] | 0 |
| C=CC(=O)N(C)CCOc1c(N)ncnc1-c1cc(F)cc(NC(=O)c2ccc(C3CC3)cc2F)c1C [Remibrutinib] | 0 |
| Cc1ccc(Nc2nccc(N(C)c3ccc4c(C)n(C)nc4c3)n2)cc1S(N)(=O)=O [Pazopanib] | 0 |
| C=CC(=O)N1CCC([C@@H]2CCNc3c(C(N)=O)c(-c4ccc(Oc5ccccc5)cc4)nn32)CC1 [Zanubrutinib] | 0 |
| NCCNc1ncc(C(N)=O)c(Nc2cccc(C(F)(F)F)c2)n1 [Syk Inhibitor II] | 0 |
| COc1nccc(-c2c(-c3ccc(F)cc3)ncn2C2CCNCC2)n1 | 0 |
| CCCOc1ccc(C=C2SC(=O)NC2=O)cc1 | 0 |
| O=C(NCCCNc1nc(Nc2cccc(CN3CCOCC3)c2)ncc1C1CC1)C1CCC1 | 0 |
| Nc1ncnc2n[nH]c(-c3ccc(Oc4ccccc4)cc3)c12 [Ibrutinib deacryloylpiperidine] | 0 |
| CC(C)(C)n1nc(-c2ccc(Cl)cc2)c2c(N)ncnc21 | 0 |
| O=C(Nc1cccc(Cl)c1)Nc1ncc(CCNc2ncnc3ccsc23)s1 [SNS-314 (mesylate)] | 0 |

An excerpt of these results, as tab-separated lines.
SMILES	number of time points
Cc1ccc(Nc2nccc(N(C)c3ccc4c(C)n(C)nc4c3)n2)cc1S(N)(=O)=O [Pazopanib (Hydrochloride)]	0
C=CC(=O)N(C)CCOc1c(N)ncnc1-c1cc(F)cc(NC(=O)c2ccc(C3CC3)cc2F)c1C [Remibrutinib]	0
Cc1ccc(Nc2nccc(N(C)c3ccc4c(C)n(C)nc4c3)n2)cc1S(N)(=O)=O [Pazopanib]	0
C=CC(=O)N1CCC([C@@H]2CCNc3c(C(N)=O)c(-c4ccc(Oc5ccccc5)cc4)nn32)CC1 [Zanubrutinib]	0
NCCNc1ncc(C(N)=O)c(Nc2cccc(C(F)(F)F)c2)n1 [Syk Inhibitor II]	0
COc1nccc(-c2c(-c3ccc(F)cc3)ncn2C2CCNCC2)n1	0
CCCOc1ccc(C=C2SC(=O)NC2=O)cc1	0
O=C(NCCCNc1nc(Nc2cccc(CN3CCOCC3)c2)ncc1C1CC1)C1CCC1	0
Nc1ncnc2n[nH]c(-c3ccc(Oc4ccccc4)cc3)c12 [Ibrutinib deacryloylpiperidine]	0
CC(C)(C)n1nc(-c2ccc(Cl)cc2)c2c(N)ncnc21	0
O=C(Nc1cccc(Cl)c1)Nc1ncc(CCNc2ncnc3ccsc23)s1 [SNS-314 (mesylate)]	0
